The values below come from patent EP1469082A1 (Boehringer Ingelheim International GmbH, dated 2004).

Sequences of proteins named here, by UniProt entry; tags and fusion partners are left off. A change or cut given only in a name is not applied to a line headed by its entry.
UniProt Q9H1A4: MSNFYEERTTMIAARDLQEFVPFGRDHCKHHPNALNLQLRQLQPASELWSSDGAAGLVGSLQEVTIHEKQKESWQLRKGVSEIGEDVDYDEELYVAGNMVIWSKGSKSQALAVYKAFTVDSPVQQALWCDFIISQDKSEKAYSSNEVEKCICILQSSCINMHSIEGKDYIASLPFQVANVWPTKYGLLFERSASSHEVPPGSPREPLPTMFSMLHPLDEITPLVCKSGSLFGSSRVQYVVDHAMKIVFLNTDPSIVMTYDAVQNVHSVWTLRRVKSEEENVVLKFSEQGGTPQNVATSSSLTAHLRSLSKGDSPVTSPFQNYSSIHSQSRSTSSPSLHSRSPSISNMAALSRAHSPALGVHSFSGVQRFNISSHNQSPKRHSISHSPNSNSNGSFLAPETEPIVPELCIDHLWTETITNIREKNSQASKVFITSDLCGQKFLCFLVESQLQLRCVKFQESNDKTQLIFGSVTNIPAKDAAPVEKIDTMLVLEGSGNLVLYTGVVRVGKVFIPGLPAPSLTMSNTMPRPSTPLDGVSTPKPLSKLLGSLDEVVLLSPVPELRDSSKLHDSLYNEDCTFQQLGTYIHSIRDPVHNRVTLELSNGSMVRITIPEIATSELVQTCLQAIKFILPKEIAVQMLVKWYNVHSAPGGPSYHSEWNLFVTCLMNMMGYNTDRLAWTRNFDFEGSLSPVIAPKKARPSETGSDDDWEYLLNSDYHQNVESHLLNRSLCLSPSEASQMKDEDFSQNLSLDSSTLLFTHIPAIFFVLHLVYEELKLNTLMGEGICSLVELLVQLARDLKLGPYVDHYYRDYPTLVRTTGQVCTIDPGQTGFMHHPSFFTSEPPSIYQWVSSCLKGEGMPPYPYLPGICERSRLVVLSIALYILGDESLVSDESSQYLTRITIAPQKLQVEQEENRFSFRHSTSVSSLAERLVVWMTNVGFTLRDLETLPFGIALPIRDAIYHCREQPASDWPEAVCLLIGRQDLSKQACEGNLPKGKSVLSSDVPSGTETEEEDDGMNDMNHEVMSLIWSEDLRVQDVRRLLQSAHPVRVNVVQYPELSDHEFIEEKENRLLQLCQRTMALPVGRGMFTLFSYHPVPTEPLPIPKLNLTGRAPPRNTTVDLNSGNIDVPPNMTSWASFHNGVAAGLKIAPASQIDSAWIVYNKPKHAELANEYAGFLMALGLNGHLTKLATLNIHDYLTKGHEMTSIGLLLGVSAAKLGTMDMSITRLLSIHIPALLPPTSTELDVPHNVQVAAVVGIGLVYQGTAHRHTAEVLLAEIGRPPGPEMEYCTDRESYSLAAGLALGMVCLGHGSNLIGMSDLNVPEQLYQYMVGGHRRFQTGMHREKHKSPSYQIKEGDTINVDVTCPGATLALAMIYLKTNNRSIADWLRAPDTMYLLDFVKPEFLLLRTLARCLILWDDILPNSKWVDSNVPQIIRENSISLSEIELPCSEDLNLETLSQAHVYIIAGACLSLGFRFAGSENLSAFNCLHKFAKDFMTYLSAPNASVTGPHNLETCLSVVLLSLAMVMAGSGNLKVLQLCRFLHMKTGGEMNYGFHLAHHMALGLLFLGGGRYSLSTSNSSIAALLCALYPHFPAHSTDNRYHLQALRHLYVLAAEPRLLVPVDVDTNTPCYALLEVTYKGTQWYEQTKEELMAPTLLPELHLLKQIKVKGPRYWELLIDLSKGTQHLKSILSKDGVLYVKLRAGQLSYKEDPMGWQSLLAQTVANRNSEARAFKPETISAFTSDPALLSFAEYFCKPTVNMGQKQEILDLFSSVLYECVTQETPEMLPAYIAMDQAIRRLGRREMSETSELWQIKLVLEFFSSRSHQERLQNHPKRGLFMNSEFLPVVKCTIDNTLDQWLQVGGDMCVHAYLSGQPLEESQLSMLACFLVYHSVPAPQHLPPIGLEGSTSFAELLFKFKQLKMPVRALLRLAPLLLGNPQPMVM

No constants are given. Whether binding was seen depends on the method and setting. In cells and extracts the contact can be indirect. Some results given as binding are weak or reduced against the parent protein; the word gives no strength.

The target of the assay is T1, CDH1 C-terminal peptide … (human).
T1 sequence (peptide): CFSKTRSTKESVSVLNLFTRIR
In words: peptide matrix pull-down from APC-containing fractions, western blot of all subunits. (In general: In western blotting, separated proteins are transferred to a membrane and probed.)

On to “holo-APC (Anaphase Promoting Complex / cyclosome) from HeLa cells (from UniProt Q9H1A4 1-1944; Q9UJX6 1-822; P30260 1-824; Q9UJX5 1-808; Q9UJX4 1-755; Q13042 1-620; Q9UJX3 1-565; Q9UJX2 2-597; Q9UM13 2-185; Q9NYG5 1-84; Q8NHZ8 1-85)”, for which the binding result is on record as “binds”.
